Numbering of substitutions follows the chain as printed. Results are given in words; binding and its absence hold for the method and conditions named. In cells and extracts the contact can be indirect. Some entries that bind do so weakly or less than the wild type. For some of these results: Tags and fused reporters may be left off the sequences shown.
How the values were obtained:
[1] = target: T1, PDCD4 in H1650 cells (human (endogenous in H1650)) (UniProt Q53EL6); assay: co-IP; H1650 lung cancer cell lysate
T1 sequence: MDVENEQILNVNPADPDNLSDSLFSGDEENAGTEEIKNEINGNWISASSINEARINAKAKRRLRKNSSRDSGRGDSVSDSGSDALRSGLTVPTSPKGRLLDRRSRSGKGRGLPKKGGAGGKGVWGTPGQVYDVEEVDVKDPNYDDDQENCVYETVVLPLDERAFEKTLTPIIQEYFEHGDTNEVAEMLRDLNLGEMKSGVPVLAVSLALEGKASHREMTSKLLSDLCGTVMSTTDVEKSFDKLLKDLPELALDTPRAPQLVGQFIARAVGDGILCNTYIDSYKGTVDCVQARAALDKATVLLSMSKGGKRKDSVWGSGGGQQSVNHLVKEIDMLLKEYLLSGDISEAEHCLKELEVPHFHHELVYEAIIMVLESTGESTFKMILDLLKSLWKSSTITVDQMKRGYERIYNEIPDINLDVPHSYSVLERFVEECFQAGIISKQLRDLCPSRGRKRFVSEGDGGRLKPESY

Amino acid sequences for entries named in this document (tags omitted).
UniProt Q9NZJ0: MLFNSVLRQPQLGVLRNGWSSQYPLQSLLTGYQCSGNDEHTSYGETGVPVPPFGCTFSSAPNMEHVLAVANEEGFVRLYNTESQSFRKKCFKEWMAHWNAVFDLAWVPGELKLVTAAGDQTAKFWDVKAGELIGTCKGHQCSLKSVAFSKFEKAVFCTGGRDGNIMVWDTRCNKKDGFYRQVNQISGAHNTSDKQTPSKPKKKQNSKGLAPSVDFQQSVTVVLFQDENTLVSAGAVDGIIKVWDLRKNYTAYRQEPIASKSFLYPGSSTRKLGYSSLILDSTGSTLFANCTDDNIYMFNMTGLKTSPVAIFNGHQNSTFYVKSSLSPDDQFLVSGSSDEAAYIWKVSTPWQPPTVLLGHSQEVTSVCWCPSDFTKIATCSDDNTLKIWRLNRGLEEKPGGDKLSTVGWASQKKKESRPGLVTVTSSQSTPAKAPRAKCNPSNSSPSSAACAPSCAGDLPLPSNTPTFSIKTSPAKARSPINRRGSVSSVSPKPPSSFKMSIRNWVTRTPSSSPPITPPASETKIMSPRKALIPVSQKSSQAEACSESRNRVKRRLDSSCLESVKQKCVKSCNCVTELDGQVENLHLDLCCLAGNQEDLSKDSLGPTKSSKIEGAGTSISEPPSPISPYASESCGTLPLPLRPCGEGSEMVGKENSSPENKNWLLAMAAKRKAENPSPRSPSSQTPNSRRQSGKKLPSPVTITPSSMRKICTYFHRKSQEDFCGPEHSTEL

[2] = target: T2, Programmed cell death 4 (PDCD4) (human (endogenous in 293T)) (UniProt Q53EL6); assay: co-IP; endogenous proteins; 293T lysates prepared by weak RIPA lysis; precipitated by DTL antibody (IgG as negative control) or by PDCD4 antibody
T2 sequence: T1 sequence

His-PDCD4(S67A) (human) = target: T3, His-PDCD4(S67A) (human) (UniProt Q53EL6); assay: co-IP; HA-DTL, His-PDCD4 and His-PDCD4(S67A) transfected into 293T; precipitated with His tag antibodies
T3 sequence: T1 sequence with S67A

[3] = target: Endogenous DTL (human (endogenous in 293T)) (UniProt Q9NZJ0); assay: co-IP; endogenous proteins; 293T lysates prepared by weak RIPA lysis; precipitated by DTL antibody (IgG as negative control) or by PDCD4 antibody

## DTL in H1650 cells (from UniProt Q9NZJ0 1-730)
[1]
  binding: binds

## Endogenous DTL (from UniProt Q9NZJ0 1-730)
[2]
  binding: binds

## HA-DTL (from UniProt Q9NZJ0 1-730)
His-PDCD4(S67A) (human)
  binding: no binding

B1: Programmed cell death 4 (PDCD4) (protein, UniProt Q53EL6 1-469)
chain: T1 sequence
[3]
  binding: binds

— paper PMC6693180
